Laboratory results: PubChem BioAssay AID652243 (Drosophila RNAi Screening Center, 2013)
Test: 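Knock-downs that decrease or increase androgen receptor reporter signal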 (primary screen). Cell system: Drosophila S2R+ cells. Reagents: long dsRNA against Drosophila genes. Timing: 72 h (48 h, then 24 h hormone). Conditions: synthetic androgen R1881 at 10 nM for 24 h. Read-out: 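Firefly light from an androgen-responsive reporter and Renilla control light per well, raw and unnormalised, for each of two replicates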. Direction: firefly reporter light: higher = more light from androgen-responsive reporter; Renilla control light: higher = more constitutive control signal (cell number, transfection). Hit rule: 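Across duplicate plates, a knock-down whose log firefly/Renilla ratio shifted a set fold down or up from the GFP/LacZ control mean was a hit; the downward cut appears as both 1.5 and 3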. Meaning of the calls: active = hit: reporter lowered or raised; inactive = no hit.
The deposit covers about 24,000 reagents; below is an unselected part of those with a known target gene and a result. Of all reagents, 246 (1%) got an active call. 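Plates not normalised; calls are printed but the firefly/Renilla ratio behind them is not deposited; fold cut for lowering reported inconsistently.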 Raw values are not corrected between plates. Names joined by + are all predicted targets of the reagent. Not stated in the record: the amount of reagent.

| gene | DRSC id | firefly reporter light, replicate 1 | firefly reporter light, replicate 2 | Renilla control light, replicate 1 | Renilla control light, replicate 2 | call |
| --- | --- | --- | --- | --- | --- | --- |
| ebi | DRSC00816 | 8.39e5 | 9.84e5 | 2.86e6 | 1.96e6 | inactive |
| Vha16-1 | DRSC05020 | 4.16e5 | 4.76e5 | 2.35e6 | 2.18e6 | inactive |
| CG4483 | DRSC10426 | 5.86e5 | 5.59e5 | 2.99e6 | 3.54e6 | inactive |
| CG5768 | DRSC15870 | 94477 | 1.03e5 | 7.69e5 | 8.08e5 | inactive |
| Opbp | DRSC04966 | 2.80e5 | 4.14e5 | 1.59e6 | 1.83e6 | inactive |
| Opbp | DRSC28850 | 5.54e5 | 4.93e5 | 1.24e6 | 1.05e6 | inactive |
| CG7879 | DRSC08600 | 2.69e5 | 2.56e5 | 5.25e5 | 5.07e5 | inactive |
| CG7879 | DRSC25308 | 6.68e5 | 5.90e5 | 7.80e5 | 9.67e5 | inactive |
| mia | DRSC12137 | 75325 | 48990 | 4.21e5 | 3.36e5 | inactive |
| tefu | DRSC16060 | 1.33e5 | 77601 | 1.68e6 | 1.37e6 | inactive |
| tefu | DRSC36931 | – | – | – | – | inactive |
| tefu | DRSC36932 | – | – | – | – | inactive |

A run of entries of the results above, for reference:
| gene | DRSC id | firefly reporter light, replicate 1 | firefly reporter light, replicate 2 | Renilla control light, replicate 1 | Renilla control light, replicate 2 | call |
| --- | --- | --- | --- | --- | --- | --- |
| CG5768 | DRSC15870 | 94477 | 1.03e5 | 7.69e5 | 8.08e5 | inactive |
| Opbp | DRSC04966 | 2.80e5 | 4.14e5 | 1.59e6 | 1.83e6 | inactive |

The results go on:
| gene | DRSC id | firefly reporter light, replicate 1 | firefly reporter light, replicate 2 | Renilla control light, replicate 1 | Renilla control light, replicate 2 | call |
| --- | --- | --- | --- | --- | --- | --- |
| CG18596 | DRSC15355 | 53408 | 78503 | 4.83e5 | 4.91e5 | inactive |
| CG3088 | DRSC10352 | 8.03e5 | 1.06e6 | 1.25e6 | 1.26e6 | inactive |
| Cyp6d5 | DRSC16634 | 1.16e5 | 79074 | 4.02e5 | 4.05e5 | inactive |
| Cyp6d5 | DRSC29717 | 4.55e5 | 3.50e5 | 1.13e6 | 1.36e6 | inactive |
| CG8563 | DRSC10996 | 1.43e5 | 1.45e5 | 9.94e5 | 1.52e6 | inactive |
| waw + bbx | DRSC24894 | 6.97e5 | 4.42e5 | 5.90e5 | 5.14e5 | inactive |
| Cyp4p3 | DRSC07374 | 3.05e5 | 2.19e5 | 2.42e6 | 1.69e6 | inactive |
| Cyp4p3 | DRSC26733 | 4.21e5 | 4.09e5 | 5.47e5 | 6.04e5 | inactive |
| Ets96B | DRSC16127 | 1.40e5 | 1.99e5 | 1.52e6 | 2.70e6 | inactive |
| Ets96B | DRSC27110 | 5.33e5 | 5.51e5 | 5.20e5 | 5.19e5 | inactive |
| CG41520 | DRSC21102 | 4.57e5 | 5.21e5 | 2.67e6 | 2.91e6 | inactive |
| CG41520 | DRSC37912 | 7.16e5 | 9.63e5 | 1.19e6 | 2.17e6 | inactive |
